Results are percentages, as filed.
The record does not define 0% and 100%; most values in the screen are far below 50% and negative numbers occur (in some assays of this library far below -100).
Compounds were drawn at random from those tested, without regard to their results.

Protein sequences, listed by entry. Tags and fused reporters are not part of them.
UniProt E9BF75, entry or part of it: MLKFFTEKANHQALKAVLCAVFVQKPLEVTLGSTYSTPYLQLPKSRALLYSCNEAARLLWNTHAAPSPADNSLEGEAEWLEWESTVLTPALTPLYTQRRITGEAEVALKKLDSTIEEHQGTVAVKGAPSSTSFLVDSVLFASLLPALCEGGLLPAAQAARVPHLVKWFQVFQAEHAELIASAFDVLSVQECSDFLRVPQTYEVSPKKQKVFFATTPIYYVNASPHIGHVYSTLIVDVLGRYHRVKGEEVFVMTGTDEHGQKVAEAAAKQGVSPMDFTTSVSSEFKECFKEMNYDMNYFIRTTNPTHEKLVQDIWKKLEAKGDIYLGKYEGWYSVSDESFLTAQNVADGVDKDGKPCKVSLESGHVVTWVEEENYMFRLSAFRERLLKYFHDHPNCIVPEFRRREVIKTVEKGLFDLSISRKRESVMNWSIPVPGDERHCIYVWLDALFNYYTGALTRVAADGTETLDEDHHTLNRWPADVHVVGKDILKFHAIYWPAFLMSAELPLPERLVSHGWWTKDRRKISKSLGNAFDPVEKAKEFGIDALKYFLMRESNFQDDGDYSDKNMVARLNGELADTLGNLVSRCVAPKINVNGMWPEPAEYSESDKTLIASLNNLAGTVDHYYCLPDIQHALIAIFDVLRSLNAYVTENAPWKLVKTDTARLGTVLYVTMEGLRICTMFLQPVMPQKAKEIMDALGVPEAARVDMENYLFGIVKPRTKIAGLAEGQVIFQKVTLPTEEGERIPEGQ

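Primary screen of methionyl-tRNA synthetase; the read-out is not stated. Target: Methionyl-tRNA synthetase (putative), Leishmania donovani (UniProt E9BF75). The test concentration is not given. The values are filed as inhibition. Size under these conditions: about 68,000 compounds, about 24 of them at 50% or above in at least one test.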

{"compound": "Cc1cc(C2CCCN2C(=O)c2cnn(C)c2)on1", "stereo": "stereo not given", "inhibition": 8.421}
{"compound": "Cc1cc(C)n(C2CCCN(C(=O)C3=NN(C)C(=O)CC3)C2)n1", "stereo": "stereo not given", "inhibition": 8.497}
{"compound": "CNC(=O)c1cccc(NC(=O)CN2CCN(S(C)(=O)=O)CC2)c1", "inhibition": 11.52}
{"compound": "COCCN(CCOC)C(=O)c1ccoc1C", "inhibition": 14.25}
{"compound": "Cc1cnn(CCCNC(=O)CCC2CCCCN2C)c1", "stereo": "stereo not given", "inhibition": 11.64}
{"compound": "COc1cccc(COCC(=O)NC(C)c2nnc3n2CCC3)c1", "stereo": "stereo not given", "inhibition": 3.922}
{"compound": "COCC1CCN(S(=O)(=O)NCC2COc3ccccc3C2)CC1", "stereo": "stereo not given", "inhibition": 10.63}
{"compound": "Cn1cc(CN2CCC(F)(F)C3(CCN(c4cnccn4)C3)C2)cn1", "stereo": "stereo not given", "inhibition": 17.14}
{"compound": "Cc1cccc(C2(O)CCN(C(=O)c3ccccn3)CC2)c1C", "inhibition": 11.5}
{"compound": "CCOC(=O)CCC(=O)N1CCC(CSCc2ccco2)CC1", "inhibition": 10.87}
{"compound": "CN(Cc1nnc2n1CCC2)S(=O)(=O)c1cc(Br)ccc1Br", "inhibition": 11.29}
{"compound": "Cc1ccc(NCCNC(=O)c2cc(CC(C)C)n[nH]2)nn1", "inhibition": 14.08}
{"compound": "CCC(C)NC(=O)Cn1ccc2c(C)nn(CC)c2c1=O", "stereo": "stereo not given", "inhibition": 2.254}
{"compound": "CC(C)NC(=O)[C@H]1C[C@@H]2[C@@H](C1)OCCN2Cc1ccsc1", "inhibition": 10.1}
{"compound": "Cc1n[nH]c(C)c1NC(=O)CCc1cccc(C2CCCN(C)C2)n1", "stereo": "stereo not given", "inhibition": 10.73}
{"compound": "O=C1CC(NS(=O)(=O)c2ccccc2)CN1Cc1ccccc1", "stereo": "stereo not given", "inhibition": 13.09}
{"compound": "O=C(NCCNc1ncccn1)C1CC(=O)N(Cc2ccco2)C1", "stereo": "stereo not given", "inhibition": 15.03}
{"compound": "CCN(Cc1nc(C2CC2)no1)Cc1ccc(C#N)cc1F", "inhibition": 3.106}
{"compound": "CN1CCN(C(=O)C2CCCN2c2ncnc3ccsc23)CC1", "stereo": "stereo not given", "inhibition": 9.235}
{"compound": "CN(C)CC(=O)N1C[C@H]2CCC[C@@]2(COc2ccccn2)C1", "inhibition": 9.013}
{"compound": "O=C(C[S+]([O-])Cc1ccccc1F)N1CCc2sccc2C1", "stereo": "stereo not given", "inhibition": 11.28}
{"compound": "Cc1cc(OCC(N)=O)ccc1NC(=O)C(C)Cc1ccccc1F", "stereo": "stereo not given", "inhibition": 10.64}
{"compound": "O=C(Nc1cccc(CN2CCC(CO)CC2)c1)c1cc(Cl)c[nH]1", "inhibition": 11.66}
{"compound": "O=C(c1ccoc1)N1CCc2c(COCC3CC3)cncc2C1", "inhibition": 6.667}
{"compound": "CCn1cc(NC(=O)NCC(C)(C)N2CCc3ccccc3C2)cn1", "inhibition": 17.68}
{"compound": "Cc1nn(C)c(C)c1NC(=O)CNc1cc(C(F)(F)F)ccc1F", "inhibition": 5.498}
{"compound": "CN(CCOc1cccc(F)c1)Cc1nc2c(cnn2C)c(=O)[nH]1", "inhibition": 15.36}
{"compound": "CCN(CC)S(=O)(=O)c1ccc2c(c1)N(Cc1cccnc1)C(=O)CS2", "inhibition": 10.38}
{"compound": "CC(C)CC(NC(=O)OC(C)(C)C)C(N)=O", "stereo": "stereo not given", "inhibition": 0.5391}
{"compound": "Cc1cc(C)nc(N2CCc3ccc(OC(F)F)cc3C2)n1", "inhibition": 16.88}
{"compound": "O=C(O)c1c(-c2cncnc2)ncc2c1CCN(Cc1ccco1)C2", "inhibition": -3.825}
{"compound": "Cc1nocc1C(=O)N1CCOC2(COCCN(C(C)C)C2)C1", "stereo": "stereo not given", "inhibition": 14.55}
{"compound": "CCCC(NC(=O)c1cc(C)ccc1O)c1nnn[nH]1", "stereo": "stereo not given", "inhibition": 7.427}
{"compound": "Cc1nc(C)n(C2CCCN(C(=O)c3ccc(NC4CC4)nc3)C2)n1", "stereo": "stereo not given", "inhibition": 9.206}
{"compound": "COc1cccc(Cn2[nH]c(C)c3c(NC(=O)C(C)OC)nnc2-3)c1", "stereo": "stereo not given", "inhibition": -9.382}
{"compound": "Cc1cnc(C(C)(C)NC(=O)NCc2cccnc2OC(C)C)s1", "inhibition": 12.43}
{"compound": "Cc1nccn1[C@@H]1CC[C@@H](N(C)S(=O)(=O)c2ccccc2F)[C@H]1O", "inhibition": 11.05}
{"compound": "N#CCCN(CC1CC1)Cn1cc(Cl)cn1", "inhibition": 8.355}
{"compound": "CCc1nc(C2CCCN2C(=O)c2ccc3c(c2)[nH]c(=O)n3C)no1", "stereo": "stereo not given", "inhibition": 10.69}
{"compound": "NC(=O)C(NC(=O)COC1CCCC1)c1ccccc1", "stereo": "stereo not given", "inhibition": 16.17}
{"compound": "C1CC(CN2CC[C@@H]3O[C@@H](c4nnc(C5CC5)o4)C[C@H]3C2)CCO1", "inhibition": 11.23}
{"compound": "O=C(O)c1cccc(N2CCC(Oc3cccc(F)c3)CC2)n1", "inhibition": 4.982}
{"compound": "Cc1nn(C)c(Oc2cccc(F)c2)c1NC(=O)C1CCCO1", "stereo": "stereo not given", "inhibition": 1.282}
{"compound": "CC1CCN(CC(O)CN2CCn3c(nnc3C3CC3)C2)CC1", "stereo": "stereo not given", "inhibition": 10.05}
{"compound": "CN(CC1CCCN1C)c1nccc(C2CCCC2)n1", "stereo": "stereo not given", "inhibition": 24.93}
{"compound": "COc1ccc2cc(C(=O)N3CCCC3Cn3cc(C)cn3)[nH]c2c1", "stereo": "stereo not given", "inhibition": 13.25}
{"compound": "COc1ccc2nnc(CCC(=O)Nc3nc4c(s3)CCCCC4)n2n1", "inhibition": 12.9}
{"compound": "Cn1ccnc1C(=O)N1CCC2(CCN2CC2CC2)C1", "stereo": "stereo not given", "inhibition": 7.317}
{"compound": "COCCN1CC[C@@H]2OC[C@H](C(=O)NCc3cccs3)C[C@@H]2C1", "inhibition": 2.357}
{"compound": "CN(C)C(C(=O)NCCS(=O)(=O)N(C)C)c1cccc(F)c1", "stereo": "stereo not given", "inhibition": 7.358}
{"compound": "CCCOc1ncccc1CNc1nnc(C)c(C)c1C#N", "inhibition": 14.92}
{"compound": "CCCc1nnc(N2CCN(c3cccc(OC)c3)C(=O)C2)o1", "inhibition": 0.7792}

The first 6 entries again:

| Compound | inhibition |
|---|---|
| `Cc1cc(C2CCCN2C(=O)c2cnn(C)c2)on1` (stereo not given) | 8.421 |
| `Cc1cc(C)n(C2CCCN(C(=O)C3=NN(C)C(=O)CC3)C2)n1` (stereo not given) | 8.497 |
| `CNC(=O)c1cccc(NC(=O)CN2CCN(S(C)(=O)=O)CC2)c1` | 11.52 |
| `COCCN(CCOC)C(=O)c1ccoc1C` | 14.25 |
| `Cc1cnn(CCCNC(=O)CCC2CCCCN2C)c1` (stereo not given) | 11.64 |
| `COc1cccc(COCC(=O)NC(C)c2nnc3n2CCC3)c1` (stereo not given) | 3.922 |

From ChEMBL document CHEMBL3988442, “University of Dundee, Small-Polar-MMV Screening Library” (2021).